These are yes or no findings as the source states them, for the method shown. Some entries that bind do so weakly or less than the wild type.
Molecular target: MCHR1 in membrane fractions of NHDF (human (endogenous in NHDF)) (UniProt Q99705)
Assay: far-Western, overlay or dot blot; western ligand blot: NHDF membrane fractions (PDGF-BB 40 ng/ml or vehicle treated) electrophoresed under non-reducing conditions, transferred to nitrocellulose, incubated 1 hour with biotinylated PDGF-BB, detected with streptavidin-HRP; only the binder purified

Chains of the proteins cited; added tags and fusions are not shown. Residues count along the entry.
UniProt Q99705: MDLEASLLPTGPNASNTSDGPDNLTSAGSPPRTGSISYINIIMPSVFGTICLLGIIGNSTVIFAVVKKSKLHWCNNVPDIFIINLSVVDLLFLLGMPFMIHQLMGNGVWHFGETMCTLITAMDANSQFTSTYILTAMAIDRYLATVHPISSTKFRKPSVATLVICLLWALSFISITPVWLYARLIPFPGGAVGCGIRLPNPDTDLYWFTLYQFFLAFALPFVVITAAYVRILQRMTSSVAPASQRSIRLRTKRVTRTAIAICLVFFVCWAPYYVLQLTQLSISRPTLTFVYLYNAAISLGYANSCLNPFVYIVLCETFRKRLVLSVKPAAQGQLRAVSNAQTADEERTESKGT
UniProt P01127, residues 82-190: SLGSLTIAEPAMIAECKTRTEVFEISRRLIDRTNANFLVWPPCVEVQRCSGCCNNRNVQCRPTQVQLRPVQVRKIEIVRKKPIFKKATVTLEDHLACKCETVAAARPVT

binding: binds
Substance: biotinylated PDGF-BB (from UniProt P01127 82-190) (ligand)

— article PMC8667318
